Experimental findings from publication PMC5996148 are described below.

The other results are listed elsewhere or left out. For some assays here: The exact form of the protein is not confirmed.

Some test systems named below: C14orf159 (human); C14orf24 (human); C14orf32 (human); C14orf45 (human); C15orf26 (human); C15orf38 (human); C15orf41 (human); C15orf43 (human); C15orf44 (human); C16orf13 (human); C16orf30 (human); C16orf58 (human); C16orf74 (human); C17orf42 (human); C17orf46 (human); C17orf48 (human); C17orf49 (human); C17orf56 (human); C18orf10 (human).
Common to all, as to experiment: protein microarray (ProtoArray v5.0), streptavidin-Alexa Fluor 647
Common to all, as to details: 3'-biotin; 20 mM Tris (pH 7.5), 5 mM MgCl2, 100 mM KCl, 0.1% Tween-20, A/T-rich and random oligonucleotide blockers; temperature not stated; high values mean tight binding

The target in another assay is T1, C16orf67 (UniProt Q96NS8).
T1 sequence: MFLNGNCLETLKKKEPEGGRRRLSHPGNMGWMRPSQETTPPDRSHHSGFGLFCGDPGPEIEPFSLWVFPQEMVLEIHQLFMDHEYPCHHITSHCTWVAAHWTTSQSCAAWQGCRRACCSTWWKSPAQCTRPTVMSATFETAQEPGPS

With “GGGAGGCTGAGGCAGG [G4-1 biotinylated (PQS2)]”, the binding signal is -0.321 z-score in the assay with C14orf159 (human); -0.337 z-score with C14orf24 (human); -0.328 z-score in the assay on C14orf32 (human); -0.344 z-score in the assay with C14orf45 (human); -0.332 z-score in the assay on C15orf26 (human); -0.341 z-score with C15orf38 (human). Further, the binding signal in the assay with C15orf41 (human) is -0.343 z-score; in the assay on C15orf43 (human), -0.312 z-score; with C15orf44 (human), -0.309 z-score; with C16orf13 (human), -0.339 z-score; in the assay with C16orf30 (human) it was -0.344 z-score; in the assay with C16orf58 (human) it was -0.288 z-score. In addition, the binding signal with C16orf67 is -0.312 z-score; in the assay on C16orf74 (human) it was -0.344 z-score; in the assay on C17orf42 (human), -0.271 z-score; in the assay on C17orf46 (human) it was -0.316 z-score; with C17orf48 (human), -0.289 z-score; in the assay on C17orf49 (human), -0.293 z-score. The binding signal in the assay on C17orf56 (human) is -0.344 z-score; with C18orf10 (human), -0.318 z-score.
